# In patent US20210363266A1:
# Amino acid sequences for entries named in this document (tags omitted). A change or cut given only in a name is not applied to a line headed by its entry. Residues count along the entry.
# UniProt Q07011, residues 24-186: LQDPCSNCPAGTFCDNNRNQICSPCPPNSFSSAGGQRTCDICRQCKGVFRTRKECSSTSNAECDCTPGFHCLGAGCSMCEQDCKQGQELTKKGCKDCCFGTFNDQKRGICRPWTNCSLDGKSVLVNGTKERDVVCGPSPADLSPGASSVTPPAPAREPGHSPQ
# UniProt P41273, residues 71-254: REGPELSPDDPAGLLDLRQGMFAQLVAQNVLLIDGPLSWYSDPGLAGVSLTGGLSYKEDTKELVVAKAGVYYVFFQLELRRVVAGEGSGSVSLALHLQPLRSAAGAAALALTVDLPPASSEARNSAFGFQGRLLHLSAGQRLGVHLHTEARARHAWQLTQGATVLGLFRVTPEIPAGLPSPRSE
# These are yes or no findings as the source states them, for the method shown. Some entries that bind do so weakly or less than the wild type.
# Target: human 4-1BB His protein (Sinobiological, Beijing #10041-H08H) (human) (UniProt Q07011)
# Test: blocking ELISA: 4-1BB-his coated, internal control 4-1BBL titrated, then 4-1BBL-Fc, detected with anti-human IgG-HRP; x axis printed 0 to 5 with ng/ml (apparently log10)
substance,measurement,value
internal control 4-1BBL (from UniProt P41273 71-254) (ligand),binding,binds
